From the supplement of paper PMC12819154, “High-throughput peptide-centric local stability assay extends protein–ligand identification to membrane proteins, tissues and bacteria” (Nature Structural & Molecular Biology, 2025) come the findings set out here.

Amino acid sequences for entries named in this document (tags omitted). A change or cut given only in a name is not applied to a line headed by its entry.
UniProt Q8R0X2: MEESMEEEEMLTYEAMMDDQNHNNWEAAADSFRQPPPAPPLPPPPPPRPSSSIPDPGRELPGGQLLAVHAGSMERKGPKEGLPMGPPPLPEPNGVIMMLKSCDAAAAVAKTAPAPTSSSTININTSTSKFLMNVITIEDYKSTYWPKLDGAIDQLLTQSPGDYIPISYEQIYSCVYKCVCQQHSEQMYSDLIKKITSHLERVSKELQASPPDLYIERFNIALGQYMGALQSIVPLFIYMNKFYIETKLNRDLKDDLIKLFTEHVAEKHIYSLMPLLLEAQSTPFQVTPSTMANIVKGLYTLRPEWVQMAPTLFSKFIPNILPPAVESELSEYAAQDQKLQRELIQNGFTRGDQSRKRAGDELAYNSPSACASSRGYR
UniProt Q8R2Q4: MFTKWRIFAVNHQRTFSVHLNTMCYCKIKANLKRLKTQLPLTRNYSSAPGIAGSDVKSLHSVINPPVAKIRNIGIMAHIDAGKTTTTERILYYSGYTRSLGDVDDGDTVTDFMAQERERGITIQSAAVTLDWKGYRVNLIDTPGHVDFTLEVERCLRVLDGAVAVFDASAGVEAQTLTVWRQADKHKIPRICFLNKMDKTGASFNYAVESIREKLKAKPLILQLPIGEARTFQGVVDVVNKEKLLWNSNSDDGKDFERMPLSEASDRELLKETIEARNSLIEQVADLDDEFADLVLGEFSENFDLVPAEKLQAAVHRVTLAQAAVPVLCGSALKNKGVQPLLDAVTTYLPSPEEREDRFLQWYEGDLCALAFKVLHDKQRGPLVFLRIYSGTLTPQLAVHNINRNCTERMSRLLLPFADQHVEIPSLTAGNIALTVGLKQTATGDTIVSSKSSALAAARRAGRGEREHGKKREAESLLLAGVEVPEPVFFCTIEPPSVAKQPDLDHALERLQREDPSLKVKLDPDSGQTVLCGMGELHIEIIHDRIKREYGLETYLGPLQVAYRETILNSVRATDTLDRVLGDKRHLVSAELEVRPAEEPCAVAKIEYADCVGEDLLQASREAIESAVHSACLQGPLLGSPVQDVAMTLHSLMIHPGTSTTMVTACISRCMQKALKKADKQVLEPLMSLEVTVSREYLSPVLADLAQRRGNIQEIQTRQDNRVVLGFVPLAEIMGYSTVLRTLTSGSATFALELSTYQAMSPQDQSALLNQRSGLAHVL
UniProt Q8K1J5: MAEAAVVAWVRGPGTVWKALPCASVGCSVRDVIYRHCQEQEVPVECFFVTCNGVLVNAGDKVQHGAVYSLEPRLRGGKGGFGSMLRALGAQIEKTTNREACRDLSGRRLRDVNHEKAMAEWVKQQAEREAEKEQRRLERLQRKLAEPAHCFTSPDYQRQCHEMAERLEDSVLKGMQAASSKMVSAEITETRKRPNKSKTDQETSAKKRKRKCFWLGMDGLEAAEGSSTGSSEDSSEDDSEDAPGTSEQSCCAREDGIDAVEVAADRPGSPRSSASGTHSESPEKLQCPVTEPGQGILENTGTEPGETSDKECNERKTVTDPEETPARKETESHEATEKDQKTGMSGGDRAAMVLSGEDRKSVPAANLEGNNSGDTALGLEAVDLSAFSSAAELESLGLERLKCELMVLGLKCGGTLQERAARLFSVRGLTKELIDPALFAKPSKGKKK
UniProt Q8K1A6: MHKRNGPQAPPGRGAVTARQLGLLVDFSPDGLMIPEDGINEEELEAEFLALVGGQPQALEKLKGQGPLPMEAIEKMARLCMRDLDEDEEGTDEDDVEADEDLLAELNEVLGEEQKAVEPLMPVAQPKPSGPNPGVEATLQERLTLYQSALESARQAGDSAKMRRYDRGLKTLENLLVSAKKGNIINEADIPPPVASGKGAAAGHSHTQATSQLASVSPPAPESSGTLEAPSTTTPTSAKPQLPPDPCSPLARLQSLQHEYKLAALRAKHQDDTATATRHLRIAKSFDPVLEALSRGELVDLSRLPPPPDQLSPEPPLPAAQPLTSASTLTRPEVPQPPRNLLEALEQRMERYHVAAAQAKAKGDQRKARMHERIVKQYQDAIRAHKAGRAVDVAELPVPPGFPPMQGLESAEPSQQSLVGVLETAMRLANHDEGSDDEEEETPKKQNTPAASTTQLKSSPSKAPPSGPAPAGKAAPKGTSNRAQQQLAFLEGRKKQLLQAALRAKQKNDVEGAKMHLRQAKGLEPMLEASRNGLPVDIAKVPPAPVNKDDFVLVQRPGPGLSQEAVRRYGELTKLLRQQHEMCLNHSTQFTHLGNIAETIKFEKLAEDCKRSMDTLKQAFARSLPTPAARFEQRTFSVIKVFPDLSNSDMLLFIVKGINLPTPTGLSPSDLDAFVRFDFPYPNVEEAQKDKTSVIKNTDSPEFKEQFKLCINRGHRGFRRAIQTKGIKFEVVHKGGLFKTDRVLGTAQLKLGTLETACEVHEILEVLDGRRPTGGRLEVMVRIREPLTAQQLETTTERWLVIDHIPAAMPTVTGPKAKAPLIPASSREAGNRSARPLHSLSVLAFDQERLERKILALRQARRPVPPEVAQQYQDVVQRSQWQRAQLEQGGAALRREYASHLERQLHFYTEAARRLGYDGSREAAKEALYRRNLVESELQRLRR
UniProt Q8K2F8: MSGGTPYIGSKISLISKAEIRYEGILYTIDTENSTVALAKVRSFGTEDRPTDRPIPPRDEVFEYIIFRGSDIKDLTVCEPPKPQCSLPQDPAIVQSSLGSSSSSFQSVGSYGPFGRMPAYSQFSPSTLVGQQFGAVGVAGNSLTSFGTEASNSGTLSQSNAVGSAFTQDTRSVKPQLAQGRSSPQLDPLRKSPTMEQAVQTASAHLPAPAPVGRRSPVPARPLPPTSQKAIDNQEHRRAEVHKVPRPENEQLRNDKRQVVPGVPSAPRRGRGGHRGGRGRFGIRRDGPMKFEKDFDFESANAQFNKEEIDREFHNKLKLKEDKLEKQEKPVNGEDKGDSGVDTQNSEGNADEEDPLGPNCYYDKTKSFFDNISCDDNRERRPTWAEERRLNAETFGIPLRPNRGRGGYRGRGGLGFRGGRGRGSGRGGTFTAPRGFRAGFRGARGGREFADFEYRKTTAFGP
UniProt Q8K3J1, whole entry: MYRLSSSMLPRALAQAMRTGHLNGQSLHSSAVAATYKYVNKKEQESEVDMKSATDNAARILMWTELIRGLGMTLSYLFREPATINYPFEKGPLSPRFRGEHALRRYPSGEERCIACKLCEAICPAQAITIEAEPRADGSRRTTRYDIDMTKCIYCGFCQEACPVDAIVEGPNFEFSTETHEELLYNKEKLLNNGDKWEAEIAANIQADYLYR
UniProt Q8K353: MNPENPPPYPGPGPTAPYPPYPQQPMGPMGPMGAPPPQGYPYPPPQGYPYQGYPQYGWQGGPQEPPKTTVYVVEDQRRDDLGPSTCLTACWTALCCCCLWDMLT
UniProt Q8R146: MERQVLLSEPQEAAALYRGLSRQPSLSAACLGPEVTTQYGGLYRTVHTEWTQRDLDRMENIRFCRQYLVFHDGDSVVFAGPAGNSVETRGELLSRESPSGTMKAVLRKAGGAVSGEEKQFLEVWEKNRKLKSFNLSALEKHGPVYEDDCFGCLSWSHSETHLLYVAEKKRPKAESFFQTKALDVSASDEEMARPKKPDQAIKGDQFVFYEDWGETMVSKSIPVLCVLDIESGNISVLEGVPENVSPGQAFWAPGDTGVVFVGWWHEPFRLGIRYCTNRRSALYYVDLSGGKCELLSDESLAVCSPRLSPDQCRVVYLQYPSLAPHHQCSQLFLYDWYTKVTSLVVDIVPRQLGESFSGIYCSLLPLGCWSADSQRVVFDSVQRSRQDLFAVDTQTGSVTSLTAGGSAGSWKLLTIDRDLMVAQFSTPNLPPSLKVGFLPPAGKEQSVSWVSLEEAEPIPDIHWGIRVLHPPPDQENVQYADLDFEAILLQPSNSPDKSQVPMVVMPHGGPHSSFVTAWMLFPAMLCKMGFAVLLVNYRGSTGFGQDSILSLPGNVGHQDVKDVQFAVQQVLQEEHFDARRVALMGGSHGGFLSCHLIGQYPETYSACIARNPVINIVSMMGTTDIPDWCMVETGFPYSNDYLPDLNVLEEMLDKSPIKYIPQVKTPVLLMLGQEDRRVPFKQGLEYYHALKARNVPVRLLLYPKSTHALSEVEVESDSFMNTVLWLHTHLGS
UniProt Q8K4Z5: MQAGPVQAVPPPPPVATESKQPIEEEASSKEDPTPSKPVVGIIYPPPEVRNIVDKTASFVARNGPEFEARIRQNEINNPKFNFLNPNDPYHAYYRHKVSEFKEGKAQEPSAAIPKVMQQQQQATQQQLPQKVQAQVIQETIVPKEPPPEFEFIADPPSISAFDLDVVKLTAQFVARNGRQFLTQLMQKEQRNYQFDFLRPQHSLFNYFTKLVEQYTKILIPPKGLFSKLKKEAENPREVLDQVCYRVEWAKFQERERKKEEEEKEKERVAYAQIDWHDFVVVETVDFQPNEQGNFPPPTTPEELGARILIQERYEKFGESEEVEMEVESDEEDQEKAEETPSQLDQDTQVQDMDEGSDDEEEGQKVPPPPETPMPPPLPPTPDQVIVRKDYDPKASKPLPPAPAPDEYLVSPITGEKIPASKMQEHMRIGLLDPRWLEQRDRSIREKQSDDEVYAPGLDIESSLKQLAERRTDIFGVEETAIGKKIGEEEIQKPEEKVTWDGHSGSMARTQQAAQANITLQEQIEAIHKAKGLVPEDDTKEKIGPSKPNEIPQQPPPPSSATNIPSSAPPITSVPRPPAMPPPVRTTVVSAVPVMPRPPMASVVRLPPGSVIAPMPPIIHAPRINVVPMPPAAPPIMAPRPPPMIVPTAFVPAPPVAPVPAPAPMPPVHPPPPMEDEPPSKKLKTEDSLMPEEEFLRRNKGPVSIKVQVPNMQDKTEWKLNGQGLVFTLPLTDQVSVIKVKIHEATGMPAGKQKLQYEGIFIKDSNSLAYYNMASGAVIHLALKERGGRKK
UniProt Q8R081: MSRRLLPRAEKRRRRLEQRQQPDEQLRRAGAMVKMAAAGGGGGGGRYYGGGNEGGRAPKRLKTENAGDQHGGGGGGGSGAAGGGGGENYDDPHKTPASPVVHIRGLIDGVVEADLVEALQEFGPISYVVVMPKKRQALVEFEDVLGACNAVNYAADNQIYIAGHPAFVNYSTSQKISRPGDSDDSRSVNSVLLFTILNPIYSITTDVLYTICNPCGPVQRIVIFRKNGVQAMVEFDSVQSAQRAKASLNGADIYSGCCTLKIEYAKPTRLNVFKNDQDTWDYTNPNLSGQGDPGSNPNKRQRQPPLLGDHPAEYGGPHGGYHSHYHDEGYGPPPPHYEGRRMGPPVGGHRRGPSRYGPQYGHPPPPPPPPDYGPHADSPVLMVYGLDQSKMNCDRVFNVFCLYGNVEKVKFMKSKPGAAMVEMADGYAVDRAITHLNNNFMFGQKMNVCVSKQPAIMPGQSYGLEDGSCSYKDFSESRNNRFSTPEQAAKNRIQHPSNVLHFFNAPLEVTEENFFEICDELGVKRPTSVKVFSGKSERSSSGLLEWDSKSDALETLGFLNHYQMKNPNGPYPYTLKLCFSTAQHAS
UniProt Q8R2P1: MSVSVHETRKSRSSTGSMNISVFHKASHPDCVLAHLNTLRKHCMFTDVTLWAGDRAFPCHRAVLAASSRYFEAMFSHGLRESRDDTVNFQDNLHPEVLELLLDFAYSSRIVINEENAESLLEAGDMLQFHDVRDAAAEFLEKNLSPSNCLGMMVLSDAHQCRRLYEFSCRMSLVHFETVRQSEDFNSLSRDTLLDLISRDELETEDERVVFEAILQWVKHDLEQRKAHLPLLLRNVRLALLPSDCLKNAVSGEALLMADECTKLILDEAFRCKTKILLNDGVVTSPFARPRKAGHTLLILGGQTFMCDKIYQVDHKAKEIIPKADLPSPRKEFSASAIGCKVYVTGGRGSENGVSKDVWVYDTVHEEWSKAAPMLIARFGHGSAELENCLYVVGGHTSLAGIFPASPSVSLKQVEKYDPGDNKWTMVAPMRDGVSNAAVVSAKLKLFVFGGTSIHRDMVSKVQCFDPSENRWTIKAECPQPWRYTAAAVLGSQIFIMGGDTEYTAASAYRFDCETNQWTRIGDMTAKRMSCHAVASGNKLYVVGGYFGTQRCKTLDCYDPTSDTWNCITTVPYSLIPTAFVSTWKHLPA
UniProt Q8R0Z6: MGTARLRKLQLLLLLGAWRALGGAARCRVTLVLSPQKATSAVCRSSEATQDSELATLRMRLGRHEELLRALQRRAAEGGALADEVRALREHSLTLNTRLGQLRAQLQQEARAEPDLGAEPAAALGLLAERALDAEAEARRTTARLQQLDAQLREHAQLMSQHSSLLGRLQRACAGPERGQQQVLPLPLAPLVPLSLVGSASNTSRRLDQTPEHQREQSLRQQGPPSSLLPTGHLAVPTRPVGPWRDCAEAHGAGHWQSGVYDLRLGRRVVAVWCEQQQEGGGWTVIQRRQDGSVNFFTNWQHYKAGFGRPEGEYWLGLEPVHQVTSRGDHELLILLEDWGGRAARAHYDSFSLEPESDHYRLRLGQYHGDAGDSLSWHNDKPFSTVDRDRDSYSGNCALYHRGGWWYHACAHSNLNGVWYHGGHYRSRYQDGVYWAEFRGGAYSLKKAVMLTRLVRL

Some of the results follow. Most entries show no effect beyond the scatter of the controls.

Compound in the test: CN[C@@H]1C[C@H]2O[C@@](C)([C@@H]1OC)n1c3ccccc3c3c4c(c5c6ccccc6n2c5c31)C(=O)NC4 [staurosporine]
The test is described as follows: log2 fold change of tryptic peptide abundance, ligand vs vehicle (limited proteolysis) (log2 ratio); higher = more trypsin-susceptible (destabilized). To be noted: ligand concentration: 20 uM; sample: mouse liver crude lysate; replicate design: treated separately.
Regarding “UniProt Q8R0X2 (peptide sequence: ELIQNGFTR, peptide start residue: 342)”, the log2 fold change was -0.175.
In the case of “UniProt Q8R1R3 (peptide sequence: QFFNVQLDTEYRK, peptide start residue: 181)” it was -0.822.
In the case of “UniProt Q8R050 (peptide sequence: SVDGPIRLPIVDKYK, peptide start residue: 434)” it was -0.405.
For “UniProt Q8R2Q4 (peptide sequence: IYSGTLTPQLAVHNINR, peptide start residue: 388)”, the log2 fold change was found to be 0.197.
Turning to “UniProt Q8R1G2 (peptide sequence: REDCSPADKPYIEEAR, peptide start residue: 219)”, the log2 fold change was -0.442.
Consider “UniProt Q8K1J5 (peptide sequence: TVTDPEETPARK, peptide start residue: 317)”, for which the log2 fold change was determined as 0.273.
As to “UniProt Q8K389 (peptide sequence: AIQGLTMALK, peptide start residue: 314)”, the log2 fold change was determined as 0.357.
Then “UniProt Q8K2T1 (peptide sequence: KLVVVFGATGAQGGSVAR, peptide start residue: 5)”, with 0.398; and “UniProt Q8K1A6 (peptide sequence: AQLEQGGAALR, peptide start residue: 884)”, with 0.5.
In the case of “UniProt Q8N7N5 (peptide sequence: MSNKRPNTTDGR, peptide start residue: 1)”, the log2 fold change was -0.522.
Turning to “UniProt Q8K2F8 (peptide sequence: EEIDREFHNK, peptide start residue: 307)”, the log2 fold change was -0.471.
“UniProt Q8R0Y6 (peptide sequence: HRGASAINWTLIHGDKK, peptide start residue: 113)”: the log2 fold change is -1.06.
For “UniProt Q8K3J1 (peptide sequence: FRGEHALR, peptide start residue: 97)”, the log2 fold change was -0.264.
Then “UniProt Q8K353 (peptide sequence: TTVYVVEDQRR, peptide start residue: 68)”, with -0.234.
Take “UniProt Q8R2N0 (peptide sequence: VKEAPASQESQFTDRYPEHLK, peptide start residue: 74)”: the log2 fold change is -0.353.
Consider “UniProt Q8R146 (peptide sequence: ALDVSASDEEMARPK, peptide start residue: 181)”, for which the log2 fold change was -0.0999.
In the case of “UniProt Q8K4Z5 (peptide sequence: LTAQFVAR, peptide start residue: 169)”, the log2 fold change stood at 0.208.
In the case of “UniProt Q8QZT1 (peptide sequence: AGIPKEEVK, peptide start residue: 76)” it was -0.163.
For “UniProt Q8R081 (peptide sequence: SDALETLGFLNHYQMK, peptide start residue: 550)”, the log2 fold change is 0.192.
“UniProt Q8R2P1 (peptide sequence: QSEDFNSLSR, peptide start residue: 181)”: the log2 fold change was determined as 0.258.
Then “UniProt Q8K4G2 (peptide sequence: PGLPGPK, peptide start residue: 145)”, with 0.351.
Then “UniProt Q8K245 (peptide sequence: QSSTFGGADGGFSAGIPSPDKVHR, peptide start residue: 480)”, with 0.216; and “UniProt Q8R2R3 (peptide sequence: DKAATLPHEQR, peptide start residue: 275)”, with -0.139; and “UniProt Q8K4G5 (peptide sequence: QSLGESPR, peptide start residue: 465)”, with -0.289.
For “UniProt Q8R0Z6 (peptide sequence: AQLQQEAR, peptide start residue: 104)”, the log2 fold change is -0.165.
